# Results taken from PubChem BioAssay AID2563 (Broad Institute, 2010).
# Sequences of proteins named here, by UniProt entry; tags and fusion partners are left off. A change or cut given only in a name is not applied to a line headed by its entry.
# UniProt Q03530: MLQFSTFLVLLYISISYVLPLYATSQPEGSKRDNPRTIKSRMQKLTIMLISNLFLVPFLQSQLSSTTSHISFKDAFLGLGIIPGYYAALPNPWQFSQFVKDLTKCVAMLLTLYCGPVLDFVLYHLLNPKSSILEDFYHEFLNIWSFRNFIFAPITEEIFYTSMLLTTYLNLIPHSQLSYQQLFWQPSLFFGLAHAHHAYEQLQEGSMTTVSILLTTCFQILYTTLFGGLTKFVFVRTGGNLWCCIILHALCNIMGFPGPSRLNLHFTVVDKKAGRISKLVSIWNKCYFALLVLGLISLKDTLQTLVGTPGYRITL
# The whole screen tested about 290,000 compounds, of which about 800 (0.28%) were called active. Inconclusive results, whose numbers are uncertain, are shown with a selection of clear calls.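 The calls were made as follows: active = fall in fluorescence gain of 50% or more versus controls, with final raw signal at or below 3038400; inconclusive = same 50% fall but final raw signal above 3038400; inactive = fall in fluorescence gain under 50%.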
# Biological target: CAAX prenyl protease 2 (Saccharomyces cerevisiae (strain ATCC 204508 / S288c)) (UniProt Q03530)
# Assay: blockers of Rce1 CaaX peptide cleavage – biochemical, fluorescence, cell-free homogeneous, primary screen (AID 2563)
# Details: yeast membranes, quenched prenylated peptide cleavage fluorescence
row,Compound,outcome
1,Cc1c(C)c2c(OCC(=O)NCC(=O)NCC(=O)O)cc3c(c2oc1=O)CCC(C)(C)O3,inconclusive
2,COCc1c(C(=O)N/N=C/C2CC=CCC2)nnn1-c1nonc1N (centres undefined),active
3,CC(=O)N(C)c1ccc(NC(=O)N2CCOCC2)cc1,inactive
4,COc1ccc(N2CCN(C(=O)CCc3nnc4ccc(N5CCCC5)nn34)CC2)cc1,inactive
5,CCOC(=O)c1cnc2[nH]c3ccccc3n2c1=O,inconclusive
6,CCCC(=O)Nc1ccc2c(c1)nc1n2CCOC1,inactive
7,CCOc1ccc(-n2ccnc(SCC(=O)NC3CCCC3)c2=O)cc1,active
8,CCc1nc(C)cn1S(=O)(=O)c1cc(OC)c(C)cc1C,inconclusive
9,COc1ccccc1-c1nc(C#N)c(N2CCC(C(N)=O)CC2)o1,inconclusive
10,COc1ccc(-c2nc(C#N)c(NCCCN(C)C)o2)cc1OC,inconclusive
11,CC12CCC(C(=O)N(NC(=O)c3cc(Cl)ccc3O)C1=O)C2(C)C (centres undefined),inconclusive
12,N#Cc1nc(-c2cccs2)oc1NCC1CCCO1 (centres undefined),inconclusive
13,COP(=O)(OC)c1nc(-c2cccc3ccccc23)oc1N1CCCCC1,inconclusive
14,S=c1[nH]nc(-c2ccccc2)o1,active
15,CCC(=O)N1N=C(c2ccc(NS(C)(=O)=O)cc2)CC1c1ccc(C)cc1 (centres undefined),inconclusive
16,COc1cccc2[nH]c3c(N4CCC(C(N)=O)CC4)ncnc3c12,inconclusive
17,O=C(COC(=O)c1cccc(S(=O)(=O)NCc2ccccc2)c1)c1ccc2c(c1)OCCO2,inactive
18,CC(=O)c1sc(-c2ccc(Cl)cc2)nc1C,inactive
19,CCCCNc1ccccc1C(=O)OCC(=O)Nc1ccc(S(N)(=O)=O)cc1,inconclusive
20,CCOC(=O)c1nn(-c2ccccc2)c(C#N)c1N,inconclusive
21,Cc1cccc(C(=O)N(CC(=O)Nc2sc(C)c(C)c2C(N)=O)C2CCCC2)c1,inactive
22,Cc1cccc(NC(=O)c2ccc(NCCc3ccccc3)c([N+](=O)[O-])c2)c1,inactive
23,Cc1ccc(CNC(=O)CN(C(=O)C2(C)CC(=O)N=C3C=CC=CN32)c2ccccc2)cc1 (centres undefined),inconclusive
24,Cc1csc(NC(=O)c2ccccc2O)n1,active
25,COC(=O)c1ccc(Oc2c(C)oc3c(CN4CCN(C)CC4)c(O)ccc3c2=O)cc1,inconclusive
26,CCN(CC)CCN(C(=O)c1cc2ccccc2cc1OC)c1nc2ccc(F)cc2s1,active

# Taken from above.
# For outcome, CC(=O)c1sc(-c2ccc(Cl)cc2)nc1C has the entry inactive
# For outcome, CCN(CC)CCN(C(=O)c1cc2ccccc2cc1OC)c1nc2ccc(F)cc2s1 has the entry active

# Remaining list, next part:

row,Compound,outcome
1,CCOP(=O)(OCC)c1nc(-c2cccc3ccccc23)oc1N1CCCCC1,inconclusive
2,O=C(O)COc1ccc(-c2nc(-c3ccccc3)c(-c3ccccc3)[nH]2)cc1,inconclusive
3,C=CCn1c(=N)c(C(=O)NCCCOC)cc2c(=O)n3ccccc3nc21,inconclusive
4,N/C(=N\OC(=O)c1ccc(Cl)c(Cl)c1)c1cccnc1,inactive
5,CC1CCCN(Cc2c(O)ccc3c4c(c(=O)oc23)CCCC4)C1 (centres undefined),inconclusive
6,COc1ccc(CCN(C)C(=O)c2ccc(S(=O)(=O)Nc3ccccc3C)cc2)cc1OC,active
7,CCC(NC(=O)COc1cc2c(c3oc(=O)c(C)c(C)c13)CCC(C)(C)O2)C(=O)O (centres undefined),inconclusive
8,COc1cc(C(=O)NC(=S)Nc2ccc([N+](=O)[O-])cc2)cc(OC)c1OC,inactive
9,Cc1cc(=O)oc2c3c(cc(OCC(=O)N[C@H](C(=O)O)c4ccccc4)c12)OC(C)(C)CC3,inconclusive
10,CCOC(=O)c1nn(-c2ccc3c(c2)CCN3C(C)=O)cc1O,inconclusive
11,CCOc1cc(S(=O)(=O)N(Cc2ccccc2)Cc2ccccc2)c(OCC)cc1-n1cnnn1,active
12,O=S(=O)(c1ccccc1)c1ccc(NCc2ccco2)cc1,inactive
13,COC(CSc1nc(N)c2c3c(sc2n1)CN(C)CC3)OC,inconclusive
14,Cc1c(CCC(=O)O)c(=O)n2c([nH]c3ccccc32)c1C#N,inconclusive
15,CCSc1nnc(NC(=O)c2c(-c3ccccc3Cl)noc2C)s1,inactive
16,CC1=CC=CC2=NC(=O)CC(C)(C(=O)N(CC(=O)NC(C)C)C3CCCC3)N12 (centres undefined),inconclusive
17,COc1ccc(OC)c(/C=N/NC(=O)CSc2cc(C)nc3c(OC)cccc23)c1,active
18,Nc1nccnc1C(=O)OCC(=O)N1CCN(S(=O)(=O)c2ccc(Cl)cc2)CC1,inconclusive
19,Cn1c(-c2ccco2)nc2cc3ccccc3cc21,inconclusive
20,CCc1ccc(NC(=O)c2cnc(N3CCN(c4ccccn4)CC3)c3ccccc23)cc1,active
21,Cc1nnn(-c2nonc2N)c1C(=O)N/N=C/c1cccc2ccccc12,active
22,COc1cccc(-c2nc(C#N)c(N3CCN(C(=O)c4ccco4)CC3)o2)c1,active
23,CC(CCc1ccccc1)NCC(O)c1ccc(O)c(C(N)=O)c1 (centres undefined),active
24,CC(C)c1ccc2oc3nc(N)c(C(=O)O)cc3c(=O)c2c1,inconclusive
25,COc1ccc(-c2nc(C#N)c(NCC3CCCO3)o2)cc1OC (centres undefined),inconclusive
26,CCOC(=O)C1CCCN(C(=O)CCC(=O)Nc2ccc3nc(N4CCOCC4)cc(C)c3c2)C1 (centres undefined),inconclusive

# Reformatted: entries from further up.
row	Compound	outcome
23	CC(CCc1ccccc1)NCC(O)c1ccc(O)c(C(N)=O)c1 (centres undefined)	active
24	CC(C)c1ccc2oc3nc(N)c(C(=O)O)cc3c(=O)c2c1	inconclusive
25	COc1ccc(-c2nc(C#N)c(NCC3CCCO3)o2)cc1OC (centres undefined)	inconclusive
26	CCOC(=O)C1CCCN(C(=O)CCC(=O)Nc2ccc3nc(N4CCOCC4)cc(C)c3c2)C1 (centres undefined)	inconclusive

# More records:

row,Compound,outcome
1,Cc1ccc(CNC(=O)CN(C(=O)C2(C)CC(=O)N=C3C=CC=CN32)c2cccc(C)c2C)cc1 (centres undefined),inconclusive
2,Cc1cccc(NC(=O)N2CCCC2C(=O)NCc2cccs2)c1 (centres undefined),inactive
3,C[C@H](NC(=O)c1nc[nH]c1C(=O)NCc1ccc(CNC(=O)OC(C)(C)C)cc1)C(=O)OC(C)(C)C,inconclusive
4,Cn1c(=O)cc(OCC(=O)Nc2ccccn2)c2ccccc21,inconclusive
5,COc1ccc(CNc2oc(-c3cccc4ccccc34)nc2P(=O)(OC)OC)cc1,inconclusive
6,Nc1cccc2nc3ccccc3cc12,active
7,CCN(CC)CCNC(=O)CSc1c2c(nc3cc(Cl)ccc13)CCCC2,active
8,COc1cccc2[nH]c3c(=O)n(CCN(C)C)cnc3c12,inconclusive
9,CCOC(=O)C1CCN(C(=O)c2cc3c(=O)n4ccccc4nc3n2C)CC1,inconclusive
10,O=C(Nc1ccccc1-c1nc2ccccc2[nH]1)c1ccc(N2C(=O)CCC2=O)cc1,active
11,COc1ccc(CSc2ccc(-c3nc4ccccn4c3NCc3ccccc3)cc2OC)cc1,active
12,Cc1ccc(Nc2ncccc2C(=O)O)cc1C,inactive
13,CCS(=O)(=O)Nc1ccc(C2=NN(S(C)(=O)=O)C(c3cccs3)C2)cc1 (centres undefined),inconclusive
14,COC(=O)c1nc(-c2ccc(C)cc2)oc1N(C)C,inconclusive
15,Cc1ccc2nc(-c3ccccc3)cn2c1,active
16,O=C(c1ccc(Br)cc1)N1CCCC1,inactive
17,CCOc1ccc(C(=O)Oc2cc(C)[nH]c(=O)c2[N+](=O)[O-])cc1OCC,inactive
18,CC(=O)Nc1ccc2nc(-c3ccco3)[nH]c2c1,inconclusive
19,N#Cc1nc(-c2ccc(F)cc2)oc1N1CCC(C(N)=O)CC1,inconclusive
20,Cc1ccccc1N(CC(=O)NC1CCCC1)C(=O)C1(C)CC(=O)N=C2C=CC=CN21 (centres undefined),inconclusive
21,CCC(NC(=O)Cc1c(C)c2cc3c(cc2oc1=O)OC(C)(C)CC3)C(=O)O (centres undefined),inconclusive
22,CCOC(=O)C1CCCN(C(=O)CCn2nnnc2CN2CCOCC2)C1 (centres undefined),active
23,CCOC(=O)CCc1c(C)c2ccc(OCC(=O)N3CCOCC3)c(C)c2oc1=O,inconclusive
24,O=C(NCc1ccco1)/C(=C\c1cccs1)NC(=O)c1ccco1,inconclusive
25,Cc1nc(-c2ccccc2)sc1-c1ccnn1C,inconclusive
26,C=CCn1c(=N)c(C(=O)NCCCOC)cc2c(=O)n3cccc(C)c3nc21,inconclusive

row,Compound,outcome
1,Cc1cccc(OCCCN2C(=O)C(=O)c3cc(C)ccc32)c1,active
2,COC(C/C=C\C(=O)[C@@H](C)OCc1ccccc1)OC,inactive
3,Cc1ccc(S(=O)(=O)c2nc(S(C)(=O)=O)sc2N2CCCCCC2)cc1,inconclusive
4,CCC1(C)Cc2ccccc2-c2nc(NCCCO)n(-c3ccccc3)c(=O)c21 (centres undefined),inconclusive
5,CC1(C(=O)N(CC(=O)NC2CCCC2)Cc2ccc(Cl)cc2)CC(=O)N=C2C=CC=CN21 (centres undefined),inconclusive
6,Cc1cc(C)c2c(n1)nn1c(NCCOCCO)cc(C)nc21,inconclusive
7,CCn1c(/C=C/c2ccccc2)nc2ccccc21,inconclusive
8,O=C(Nc1ccc(N2CCOCC2)c(Cl)c1)c1cc2ccccc2o1,active
9,N#Cc1nc(-c2cccs2)oc1NCCCN1CCOCC1,inconclusive
10,COc1ccc(-c2cc3ccc(OC(C)C(=O)O)cc3oc2=O)cc1 (centres undefined),inconclusive
11,Cc1cc(=O)[nH]c2cc(O)ccc12,inconclusive
12,C=CCn1c(=N)c(C(=O)NCCCOC)cc2c(=O)n3cc(C)ccc3nc21,inconclusive
13,CCOc1cc(CNC2CCCC2)ccc1OCc1ccccc1Cl,active
14,CCN(CC(=O)Nc1ccc(NC(C)=O)cc1)C(=O)c1cccc(S(=O)(=O)N2CCCC2)c1,inactive
15,c1ccc(CNc2nc(N3CCN(Cc4ccccc4)CC3)nc3ccccc23)cc1,active
16,CC1CN(C(=O)c2cc3c(=O)n4ccccc4nc3n2C)CC(C)O1 (centres undefined),inconclusive
17,CC(=O)N(Cc1cccs1)C1CCOC(C)(C)C1 (centres undefined),active
18,Cc1cc(=O)oc2c(CN3CCCC3)c(O)ccc12,inconclusive
19,c1cnn(Cc2cnc(N3CCOCC3)s2)c1,active
20,COc1ccc(CCNc2oc(-c3ccc(OC)c(OC)c3)nc2P(=O)(OC)OC)cc1OC,inconclusive
21,C=C(C)Cc1c(C)c(C#N)c2[nH]c3ccccc3n2c1=O,inconclusive
22,CS(=O)(=O)Nc1ccc(C2=NN(C(=O)CCCC(=O)O)C(c3cccs3)C2)cc1 (centres undefined),inconclusive
23,COc1ccc(-c2oc(NC(=O)CSc3ncn[nH]3)c(C#N)c2-c2ccc(OC)cc2)cc1,inactive
24,CC(C)n1c(/C=C/c2ccccc2)nc2ccccc21,inconclusive
25,COc1cc(C2CC(c3ccccc3)=NN2c2ccccc2)ccc1OCC(=O)O (centres undefined),inconclusive
26,Cc1cc(=O)oc2c(CN3CCN(C)CC3)c(O)c(Cl)cc12,inconclusive
